For test [1], the target named is KLF5-3×Flag (wild type) (human) (UniProt Q13887). Briefly: co-IP; KLF5-3×Flag or KLF5-K369Q-3×Flag co-expressed with BAP1 in HEK293T cells; KLF5-3×Flag proteins immunoprecipitated with anti-Flag-M2 beads; Western blotting. (Immunoblotting shows a protein as a band on a membrane.)
Another test addresses 3×Flag-BAP1 (UniProt Q92560). Briefly: co-IP; KLF5 or KLF5-K369Q co-expressed with 3×Flag-BAP1 in HEK293T cells; 3×Flag-BAP1 immunoprecipitated with anti-Flag-M2 beads; Western blotting.

Chains of the proteins cited; added tags and fusions are not shown.
UniProt Q13887: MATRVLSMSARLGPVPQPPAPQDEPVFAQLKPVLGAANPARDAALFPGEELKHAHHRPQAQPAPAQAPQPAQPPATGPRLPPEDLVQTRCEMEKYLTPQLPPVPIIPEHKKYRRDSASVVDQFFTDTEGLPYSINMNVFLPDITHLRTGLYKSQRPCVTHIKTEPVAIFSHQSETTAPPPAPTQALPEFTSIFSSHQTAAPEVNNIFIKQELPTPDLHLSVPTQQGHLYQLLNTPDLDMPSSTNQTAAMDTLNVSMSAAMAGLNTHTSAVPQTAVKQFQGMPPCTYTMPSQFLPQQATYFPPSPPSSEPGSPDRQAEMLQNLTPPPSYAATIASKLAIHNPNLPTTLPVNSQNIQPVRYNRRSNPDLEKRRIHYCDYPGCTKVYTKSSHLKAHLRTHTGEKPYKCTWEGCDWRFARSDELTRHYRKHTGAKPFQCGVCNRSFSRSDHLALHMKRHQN
UniProt Q92560: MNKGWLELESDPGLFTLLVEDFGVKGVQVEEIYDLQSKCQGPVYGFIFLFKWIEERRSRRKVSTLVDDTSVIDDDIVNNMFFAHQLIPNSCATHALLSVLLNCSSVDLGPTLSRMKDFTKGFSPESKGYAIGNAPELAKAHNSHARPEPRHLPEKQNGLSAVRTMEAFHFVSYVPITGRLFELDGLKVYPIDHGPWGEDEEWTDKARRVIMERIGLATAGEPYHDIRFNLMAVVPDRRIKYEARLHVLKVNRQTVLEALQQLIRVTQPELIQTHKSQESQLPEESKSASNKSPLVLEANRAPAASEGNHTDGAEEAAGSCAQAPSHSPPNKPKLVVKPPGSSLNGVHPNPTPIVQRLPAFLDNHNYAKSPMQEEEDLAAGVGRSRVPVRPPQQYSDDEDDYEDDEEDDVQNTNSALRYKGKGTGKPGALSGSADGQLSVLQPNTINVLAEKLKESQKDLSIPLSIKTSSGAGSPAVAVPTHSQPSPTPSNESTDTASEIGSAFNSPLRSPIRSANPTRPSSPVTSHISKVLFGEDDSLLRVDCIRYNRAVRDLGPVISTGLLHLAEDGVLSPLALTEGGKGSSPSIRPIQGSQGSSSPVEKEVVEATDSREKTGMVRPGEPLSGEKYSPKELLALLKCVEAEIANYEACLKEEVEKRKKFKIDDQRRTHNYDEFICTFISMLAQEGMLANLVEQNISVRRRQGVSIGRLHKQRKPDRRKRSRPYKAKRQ

Results are given in words; binding and its absence hold for the method and conditions named. In cells and extracts the contact can be indirect. Some results given as binding are weak or reduced against the parent protein; the word gives no strength.

Take “BAP1, untagged (from UniProt Q92560 1-729) (enzyme)”: the binding entry in test [1] is “binds”. On to “wild-type human KLF5 (Krüppel-like factor 5), untagged (from UniProt Q13887 1-457)”, for which the binding result with 3×Flag-BAP1 was “binds”.

The values are drawn from PMC8935240.
